PubChem BioAssay AID686943 | Drosophila RNAi Screening Center | 2013
The screen tested about 23,000 reagents; this is an unselected part of those with a known target gene and a result. 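Extra replicates exist only for a retested subset of genes; insulin dose and duration not given; both raised and lowered dpERK matter.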 The numbers tell different reagents against one gene apart. Not stated in the record: the amount of reagent, the time to read-out.

Aim: 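Fly genes whose loss alters ERK activation after insulin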 (primary screen)
System: Drosophila S2R+ haemocyte-like cells expressing YFP-tagged ERK (Rolled)
Knock-down reagent: long dsRNA against Drosophila genes
Conditions: insulin stimulation versus unstimulated cells; dose and duration not given
Read-out: 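Antibody staining for doubly phosphorylated ERK divided by ERK-YFP signal, as plate z-scores, in insulin-treated and untreated cells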
Direction: replicate 1, z-score of dpERK with insulin and replicate 2, z-score of dpERK with insulin: higher = more active ERK per ERK-YFP after insulin; replicate 1, z-score of dpERK under basal conditions: higher = more basal active ERK per ERK-YFP; replicate 1, z-score of ERK-YFP with insulin: higher = more YFP-tagged ERK signal

target,dsRNA no.,"replicate 1, z-score of dpERK with insulin","replicate 2, z-score of dpERK with insulin","replicate 1, z-score of dpERK under basal conditions","replicate 1, z-score of ERK-YFP with insulin"
CG31464 (GeneID 318749),1,1.08,0.43,-0.48,-0.11
eIF5B (GeneID 44261),1,-0.07,0.11,-0.62,-0.83
eIF5B (GeneID 44261),2,1.79,3.17,1.2,-5.56
GstS1 (GeneID 36927),1,-0.03,-0.72,0.68,-0.24
Abi (GeneID 41718),1,-0.1,-0.63,-0.38,1.47
Gk1 (GeneID 43913),1,-0.33,0.22,0.68,0.51
Gk1 (GeneID 43913),2,-1.26,-1.49,-0.24,0.18
Tsp5D (GeneID 31540),1,-0.25,0.17,0.21,0.08
Akr1B (GeneID 39304),1,0.19,0.71,0.22,0.49
Asciz (GeneID 38381),1,-1.11,-0.11,-0.36,0.55
BBS1 (GeneID 38780),1,-1,-0.65,0.75,1.65
CR18217 (GeneID 8674109),1,0.42,0.47,0.86,-1.4
l(3)76BDm (GeneID 40140),1,0.3,0.51,0.86,0.18
Moe (GeneID 31816),1,-1.24,0.01,0.16,-0.05
CG32024 (GeneID 317828),1,0.55,-0.4,-0.27,-1.1
BomS6 (GeneID 50206),1,-0.49,-0.87,0.72,1.67
CG33346 (GeneID 2768690),1,0.69,0.12,-0.76,-0.81
wfs1 (GeneID 42679),1,0.35,1.08,-0.37,0
CG10063 (GeneID 38764),1,0.36,0.12,-0.04,0.96
lawc (GeneID 318164),1,-0.22,-0.14,-3.35,1.97
CG15549 (GeneID 43665),1,0.06,0.13,2.47,-0.1
l(3)mbn (GeneID 38701),1,0.73,0.73,2.59,0.43
CG5758 (GeneID 35083),1,-1.78,-2.25,-0.28,-0.32
CG5758 (GeneID 35083),2,-0.3,-0.16,0.53,0.07
CG14132 (GeneID 50290),1,-0.01,-0.02,0.5,-0.03
ths (GeneID 36258),1,-0.92,-3.52,-2.5,-0.27
eve (GeneID 36039),1,0.66,0.17,2.89,0.27
CG13933 (GeneID 38227),1,1.34,0.08,-0.05,0.25
Dad1 (GeneID 34159),1,-0.27,-0.89,-0.67,1.08
CG2975 (GeneID 33481),1,-0.49,-0.49,0.93,-0.14
Tl (GeneID 43222),1,0.62,0.12,-0.47,-3.35
CG4459 (GeneID 42377),1,0.55,-0.02,0.23,0.26

As entered above.
Under “replicate 1, z-score of ERK-YFP with insulin”, Tl (GeneID 43222) shows -3.35
Under “replicate 1, z-score of dpERK under basal conditions”, Dad1 (GeneID 34159) reads -0.67
CG10063 (GeneID 38764), replicate 1, z-score of dpERK under basal conditions → -0.04
For “replicate 1, z-score of ERK-YFP with insulin”, CG4459 (GeneID 42377) shows 0.26
For “replicate 1, z-score of ERK-YFP with insulin”, eIF5B (GeneID 44261) #1 shows -0.83
Value of CG32024 (GeneID 317828) in “replicate 2, z-score of dpERK with insulin”: -0.4

Additional entries:
target,dsRNA no.,"replicate 1, z-score of dpERK with insulin","replicate 2, z-score of dpERK with insulin","replicate 1, z-score of dpERK under basal conditions","replicate 1, z-score of ERK-YFP with insulin"
Syx1A (GeneID 42854),1,0.31,0.11,0.44,0.04
Syx1A (GeneID 42854),2,-0.46,-0.61,-0.81,0.5
CG8202 (GeneID 41043),1,0.83,-0.09,-0.2,0.67
CG6674 (GeneID 39174),1,-1,0.63,0.05,1.24
mRpS10 (GeneID 41838),1,0.33,0.47,0.54,0.57
pdgy (GeneID 32426),1,-0.14,1.16,2.02,-0.34
pdgy (GeneID 32426),2,-0.09,-0.16,-0.01,0.49
CG8860 (GeneID 36310),1,0.6,0.54,1.04,0.81
Ipk2 (GeneID 33236),1,0.52,-1.1,0.82,0.53
sfl (GeneID 38736),1,0.04,0.39,0.54,0.44
sfl (GeneID 38736),2,1.06,1.21,0.13,-0.28
CG4229 (GeneID 39840),1,0.02,0.95,-0.03,0.71
Phae2 (GeneID 34638),1,0.28,0.29,0.13,0.35
kuz (GeneID 34772),1,-0.85,-1.18,-0.11,0.37
Gdap1 (GeneID 38597),1,-0.87,0.18,-0.06,0.5
CG13557 (GeneID 37717),1,-0.31,-1.86,0.06,0.14
Actn3 (GeneID 44964),1,0.27,0.89,0.33,-0.2
Nup154 (GeneID 34527),1,0.22,0.26,-1.23,-2.03
psidin (GeneID 42389),1,0.25,-0.15,0.17,-0.62
CG8861 (GeneID 41109),1,-1.31,0.43,-1.6,2.75
CG8861 (GeneID 41109),2,-0.34,0.6,0.5,0.21
Dgkepsilon (GeneID 36408),1,0.17,0.94,0.07,0.87
CG18428 (GeneID 42857),1,-0.64,0,0.49,0.34
Eglp4 (GeneID 37739),1,-0.23,-0.15,-0.02,0
sub (GeneID 44870),1,0.22,0.35,-0.09,0.23
